These are yes or no findings as the source states them, for the method shown. In cells and extracts the contact can be indirect. Some binding calls cover weakened binding; strength is not graded here.

By UniProt entry, the sequences of proteins in these tests, tags left out.
UniProt Q04726: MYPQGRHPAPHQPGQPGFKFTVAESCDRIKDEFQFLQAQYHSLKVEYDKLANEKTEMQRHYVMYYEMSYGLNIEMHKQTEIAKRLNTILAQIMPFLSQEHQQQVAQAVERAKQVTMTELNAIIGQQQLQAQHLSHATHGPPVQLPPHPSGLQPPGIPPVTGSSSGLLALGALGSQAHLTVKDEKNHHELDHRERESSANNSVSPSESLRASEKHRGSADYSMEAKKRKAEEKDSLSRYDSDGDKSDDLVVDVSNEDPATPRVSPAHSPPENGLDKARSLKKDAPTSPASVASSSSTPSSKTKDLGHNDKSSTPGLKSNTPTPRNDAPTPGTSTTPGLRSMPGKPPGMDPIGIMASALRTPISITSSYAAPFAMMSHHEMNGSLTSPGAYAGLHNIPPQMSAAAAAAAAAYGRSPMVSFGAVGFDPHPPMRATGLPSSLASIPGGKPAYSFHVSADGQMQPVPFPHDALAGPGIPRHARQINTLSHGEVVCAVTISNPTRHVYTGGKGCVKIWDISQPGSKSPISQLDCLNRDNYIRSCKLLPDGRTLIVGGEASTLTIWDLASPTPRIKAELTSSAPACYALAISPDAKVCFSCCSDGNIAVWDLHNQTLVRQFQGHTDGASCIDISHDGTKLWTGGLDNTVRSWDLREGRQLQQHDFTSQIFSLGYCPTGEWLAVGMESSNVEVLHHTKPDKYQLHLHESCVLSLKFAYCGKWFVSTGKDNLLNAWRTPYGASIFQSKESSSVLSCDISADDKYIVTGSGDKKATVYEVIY
UniProt P35222: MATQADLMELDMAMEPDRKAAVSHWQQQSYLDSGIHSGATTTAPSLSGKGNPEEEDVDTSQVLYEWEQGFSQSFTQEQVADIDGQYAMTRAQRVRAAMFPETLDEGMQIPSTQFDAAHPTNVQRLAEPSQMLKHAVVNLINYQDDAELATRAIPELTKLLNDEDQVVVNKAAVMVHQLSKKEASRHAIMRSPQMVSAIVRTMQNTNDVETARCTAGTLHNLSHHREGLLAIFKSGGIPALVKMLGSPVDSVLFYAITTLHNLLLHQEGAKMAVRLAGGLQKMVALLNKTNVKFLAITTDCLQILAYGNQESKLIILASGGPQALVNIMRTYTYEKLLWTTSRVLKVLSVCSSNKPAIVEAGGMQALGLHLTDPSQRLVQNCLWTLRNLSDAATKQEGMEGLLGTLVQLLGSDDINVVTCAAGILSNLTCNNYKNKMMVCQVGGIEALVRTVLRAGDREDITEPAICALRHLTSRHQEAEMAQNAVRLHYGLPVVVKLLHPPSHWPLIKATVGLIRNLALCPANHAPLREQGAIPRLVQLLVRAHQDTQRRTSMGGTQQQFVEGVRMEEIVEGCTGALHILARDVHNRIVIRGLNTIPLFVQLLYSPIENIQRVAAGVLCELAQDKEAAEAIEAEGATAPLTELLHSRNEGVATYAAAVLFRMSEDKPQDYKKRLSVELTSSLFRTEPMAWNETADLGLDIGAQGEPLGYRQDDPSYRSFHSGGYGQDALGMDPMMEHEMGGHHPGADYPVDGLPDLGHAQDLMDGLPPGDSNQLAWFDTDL

Data on 2 substances can be found in paper PMC5592244.

Assay [1] concerns the target GFP-UBR5-CS (human) (UniProt O95071). Briefly: co-IP; as a2, β-catenin-depleted UBR5 KO cells (transient knockdown by CRISPR/Cas9 single-guide RNAs, puromycin selection).
Assay [2] shares this target. Description: co-IP; co-expressed tagged proteins in HEK293T or UBR5 KO cells, with or without 6 hr of 20 mM LiCl; lysis buffer 20 mM Tris-HCl pH 7.4, 200 mM NaCl, 10% glycerol, 0.2% Triton X-100; affinity gel (Flag- or HA-) or GFP-trap 90 min at 4°C; western blot.
The target is the same in assay [3]. Description: co-IP; as a2, UBR5 KO cells not stimulated with LiCl (mock-treated).

Consider HA-TLE3 (from UniProt Q04726 1-772), for which the binding result with GFP-UBR5-CS (human) [1] is “binds weakly”; with GFP-UBR5-CS (human) [2], “binds”.
Turning to “β-catenin (endogenous) (from UniProt P35222 1-781)”, the values for the binding entry with GFP-UBR5-CS (human) [2] and with GFP-UBR5-CS (human) [3] were “binds” and “no binding (condition: cells not stimulated with LiCl)”, respectively.
